{"source": "the supplement of paper PMC8728848", "experiment_in_all_cases": "glycan array binding signal (z-score within array); higher = stronger binding", "conditions_in_all_cases": "glycan notation: IUPAC condensed, linker removed", "key": {"[1]": {"target": "Neu5Ac(a2-3)Gal(b1-4)GlcNAc(b1-3)Gal(b1-4)GlcNAc(b1-3)Gal(b1-4)GlcNAc", "procedure,_shortened": "(§1)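 Columns mapping to the same glycan were averaged after glycan names were converted to IUPAC-condensed notation. The data come from 3228 arrays in the Consortium for Functional Glycomics database, limited to those with an available protein sequence. Binding is reported as a within-array Z-score averaged across arrays of one protein sequence and across linkers.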"}, "[2]": {"target": "Neu5Ac(a2-3)Gal(b1-4)GlcNAc(b1-3)Gal(b1-4)GlcNAc(b1-3)Gal(b1-4)GlcNAc(b1-2)Man(a1-3)[Neu5Ac(a2-3)Gal(b1-4)GlcNAc(b1-3)Gal(b1-4)GlcNAc(b1-3)Gal(b1-4)GlcNAc(b1-2)Man(a1-6)]GalNAc", "procedure,_shortened": "as §1"}, "[3]": {"target": "Neu5Ac(a2-3)Gal(b1-4)GlcNAc(b1-3)Gal(b1-4)GlcNAc(b1-3)GalNAc", "procedure,_shortened": "as §1"}, "[4]": {"target": "Neu5Ac(a2-3)Gal(b1-4)GlcNAc(b1-3)Gal(b1-4)GlcNAc(b1-3)[Neu5Ac(a2-3)Gal(b1-4)GlcNAc(b1-3)Gal(b1-4)GlcNAc(b1-6)]GalNAc", "procedure,_shortened": "as §1"}, "[5]": {"target": "Neu5Ac(a2-3)Gal(b1-4)GlcNAc(b1-3)Gal(b1-4)GlcNAc(b1-6)[Gal(b1-3)]GalNAc", "procedure,_shortened": "as §1"}, "[6]": {"target": "Neu5Ac(a2-3)Gal(b1-4)GlcNAc(b1-3)Gal(b1-4)[Fuc(a1-3)]GlcNAc", "procedure,_shortened": "as §1"}, "[7]": {"target": "Neu5Ac(a2-3)Gal(b1-4)GlcNAc(b1-3)GalNAc", "procedure,_shortened": "as §1"}, "[8]": {"target": "Neu5Ac(a2-3)Gal(b1-4)GlcNAc(b1-3)[Neu5Ac(a2-3)Gal(b1-4)GlcNAc(b1-6)]GalNAc", "procedure,_shortened": "as §1"}, "[9]": {"target": "Neu5Ac(a2-3)Gal(b1-4)GlcNAc(b1-6)GalNAc", "procedure,_shortened": "as §1"}, "[10]": {"target": "Neu5Ac(a2-3)Gal(b1-4)GlcNAc(b1-6)[Gal(b1-3)]GalNAc", "procedure,_shortened": "as §1"}, "[11]": {"target": "Neu5Ac(a2-3)Gal(b1-4)GlcNAc(b1-6)[Neu5Ac(a2-3)Gal(b1-3)]GalNAc", "procedure,_shortened": "as §1"}, "[12]": {"target": "Neu5Ac(a2-3)Gal(b1-4)GlcNAc6S", "procedure,_shortened": "as §1"}, "[13]": {"target": "Neu5Ac(a2-3)Gal(b1-4)[Fuc(a1-3)]GlcNAc", "procedure,_shortened": "as §1"}, "[14]": {"target": "Neu5Ac(a2-3)Gal(b1-4)[Fuc(a1-3)]GlcNAc(b1-2)Man", "procedure,_shortened": "as §1"}, "[15]": {"target": "Neu5Ac(a2-3)Gal(b1-4)[Fuc(a1-3)]GlcNAc(b1-3)Gal", "procedure,_shortened": "as §1"}, "[16]": {"target": "Neu5Ac(a2-3)Gal(b1-4)[Fuc(a1-3)]GlcNAc(b1-3)Gal(b1-4)GlcNAc", "procedure,_shortened": "as §1"}, "[17]": {"target": "Neu5Ac(a2-3)Gal(b1-4)[Fuc(a1-3)]GlcNAc(b1-3)Gal(b1-4)[Fuc(a1-3)]GlcNAc(b1-3)Gal(b1-4)[Fuc(a1-3)]GlcNAc", "procedure,_shortened": "as §1"}, "[18]": {"target": "Neu5Ac(a2-3)Gal(b1-4)[Fuc(a1-3)]GlcNAc(b1-3)GalNAc", "procedure,_shortened": "as §1"}, "[19]": {"target": "Neu5Ac(a2-3)Gal(b1-4)[Fuc(a1-3)]GlcNAc(b1-6)[Gal(b1-3)]GalNAc", "procedure,_shortened": "as §1"}, "[20]": {"target": "Neu5Ac(a2-3)Gal(b1-4)[Fuc(a1-3)]GlcNAc(b1-6)[Neu5Ac(a2-3)Gal(b1-3)]GalNAc", "procedure,_shortened": "as §1"}, "[21]": {"target": "Neu5Ac(a2-3)Gal(b1-4)[Fuc(a1-3)]GlcNAc6S", "procedure,_shortened": "as §1"}, "[22]": {"target": "Neu5Ac(a2-3)Gal6S(b1-4)GlcNAc", "procedure,_shortened": "as §1"}, "[23]": {"target": "Neu5Ac(a2-3)Gal6S(b1-4)[Fuc(a1-3)]GlcNAc", "procedure,_shortened": "as §1"}, "[24]": {"target": "Neu5Ac(a2-3)GalNAc", "procedure,_shortened": "as §1"}, "[25]": {"target": "Neu5Ac(a2-3)GalNAc(b1-4)GlcNAc", "procedure,_shortened": "as §1"}, "[26]": {"target": "Neu5Ac(a2-3)[GalNAc(b1-4)]Gal(b1-4)Glc", "procedure,_shortened": "as §1"}, "[27]": {"target": "Neu5Ac(a2-3)[GalNAc(b1-4)]Gal(b1-4)GlcNAc", "procedure,_shortened": "as §1"}, "[28]": {"target": "Neu5Ac(a2-3)[GalNAc(b1-4)]Gal(b1-4)GlcNAc(b1-3)GalNAc", "procedure,_shortened": "as §1"}, "[29]": {"target": "Neu5Ac(a2-3)[Neu5Ac(a2-6)]GalNAc", "procedure,_shortened": "as §1"}, "[30]": {"target": "Neu5Ac(a2-6)Gal", "procedure,_shortened": "as §1"}, "[31]": {"target": "Neu5Ac(a2-6)Gal(b1-3)GlcNAc(b1-3)[Gal(b1-4)GlcNAc(b1-6)]Gal(b1-4)Glc", "procedure,_shortened": "as §1"}, "[32]": {"target": "Neu5Ac(a2-6)Gal(b1-4)Glc", "procedure,_shortened": "as §1"}, "[33]": {"target": "Neu5Ac(a2-6)Gal(b1-4)GlcNAc", "procedure,_shortened": "as §1"}, "[34]": {"target": "Neu5Ac(a2-6)Gal(b1-4)GlcNAc(b1-2)Man", "procedure,_shortened": "as §1"}, "[35]": {"target": "Neu5Ac(a2-6)Gal(b1-4)GlcNAc(b1-2)Man(a1-3)Man(b1-4)GlcNAc(b1-4)GlcNAc", "procedure,_shortened": "as §1"}, "[36]": {"target": "Neu5Ac(a2-6)Gal(b1-4)GlcNAc(b1-2)Man(a1-3)[Gal(b1-4)GlcNAc(b1-2)Man(a1-6)]Man(b1-4)GlcNAc(b1-4)GlcNAc", "procedure,_shortened": "as §1"}, "[37]": {"target": "Neu5Ac(a2-6)Gal(b1-4)GlcNAc(b1-2)Man(a1-3)[GlcNAc(b1-2)Man(a1-6)]Man(b1-4)GlcNAc(b1-4)GlcNAc", "procedure,_shortened": "as §1"}, "[38]": {"target": "Neu5Ac(a2-6)Gal(b1-4)GlcNAc(b1-2)Man(a1-3)[GlcNAc(b1-4)][Neu5Ac(a2-6)Gal(b1-4)GlcNAc(b1-2)Man(a1-6)]Man(b1-4)GlcNAc(b1-4)GlcNAc", "procedure,_shortened": "as §1"}}, "note": "This is one part of the list.", "data": [{"binder": "GS7807G-bfa-506-18-506 (Bacteroides fragilis) (protein) ASCDKFDEINTDPDATTKVTSSLLATGLLLDITSSSASKSFIYDELLAKQMAWGESMEDYQYNVFGRSGFGGYTTLINAQKMVESVSDDNVNAYDGLAHFIKAYKIFYMSMEMGDLPYEEALQGELGLVRPKYNTQKEVMNFILSDLETAYELFSTAKDFDGDPILGGSISKWKKATTAFQLKVLMHLSKKESDADLKVKERFARIVASGSLMESNEDNLQMKYADKANTVYPFHNTNTKHAGYAMLSTMLIDKFKATGDIRMFYYAKPAKAKLNEGVTADSWDAYIGTDPSLPFEQIEKAYATEQYSGFNARYTDYPSGEPVVRLGYAEQNFILAEAAVRGWISGDASAYYKKAIRAHMEFIASNTPDEEVYHHGHPITEEAIAAFLETPAIQLSGEKEEDIEKILTQRYLASFMQHPYDVYYDYRRTGYPVLPINPATNRNTMNDRLPMRWMYPKSESDYNLEHQNEALERQFGGVDDVNKLMWILQ", "values": [{"measurement": "glycan array binding signal (z-score)", "setting": "[1]", "result": -0.109}, {"measurement": "glycan array binding signal (z-score)", "setting": "[2]", "result": 0.659}, {"measurement": "glycan array binding signal (z-score)", "setting": "[3]", "result": -0.769}, {"measurement": "glycan array binding signal (z-score)", "setting": "[4]", "result": 0.403}, {"measurement": "glycan array binding signal (z-score)", "setting": "[5]", "result": -0.419}, {"measurement": "glycan array binding signal (z-score)", "setting": "[6]", "result": -0.606}, {"measurement": "glycan array binding signal (z-score)", "setting": "[7]", "result": -0.885}, {"measurement": "glycan array binding signal (z-score)", "setting": "[8]", "result": -0.859}, {"measurement": "glycan array binding signal (z-score)", "setting": "[9]", "result": -0.022}, {"measurement": "glycan array binding signal (z-score)", "setting": "[10]", "result": -0.588}, {"measurement": "glycan array binding signal (z-score)", "setting": "[11]", "result": -1.04}, {"measurement": "glycan array binding signal (z-score)", "setting": "[12]", "result": -0.455}, {"measurement": "glycan array binding signal (z-score)", "setting": "[13]", "result": -0.878}, {"measurement": "glycan array binding signal (z-score)", "setting": "[14]", "result": -1.04}, {"measurement": "glycan array binding signal (z-score)", "setting": "[15]", "result": -0.938}, {"measurement": "glycan array binding signal (z-score)", "setting": "[16]", "result": 1.72}, {"measurement": "glycan array binding signal (z-score)", "setting": "[17]", "result": -1.06}, {"measurement": "glycan array binding signal (z-score)", "setting": "[18]", "result": -0.063}, {"measurement": "glycan array binding signal (z-score)", "setting": "[19]", "result": 0.626}, {"measurement": "glycan array binding signal (z-score)", "setting": "[20]", "result": 0.199}, {"measurement": "glycan array binding signal (z-score)", "setting": "[21]", "result": -0.532}, {"measurement": "glycan array binding signal (z-score)", "setting": "[22]", "result": -0.898}, {"measurement": "glycan array binding signal (z-score)", "setting": "[23]", "result": -1.11}, {"measurement": "glycan array binding signal (z-score)", "setting": "[24]", "result": -0.425}, {"measurement": "glycan array binding signal (z-score)", "setting": "[25]", "result": -0.697}, {"measurement": "glycan array binding signal (z-score)", "setting": "[26]", "result": -0.595}, {"measurement": "glycan array binding signal (z-score)", "setting": "[27]", "result": -0.274}, {"measurement": "glycan array binding signal (z-score)", "setting": "[28]", "result": 1.23}, {"measurement": "glycan array binding signal (z-score)", "setting": "[29]", "result": -0.349}, {"measurement": "glycan array binding signal (z-score)", "setting": "[30]", "result": 0.696}, {"measurement": "glycan array binding signal (z-score)", "setting": "[31]", "result": -0.698}, {"measurement": "glycan array binding signal (z-score)", "setting": "[32]", "result": -0.035}, {"measurement": "glycan array binding signal (z-score)", "setting": "[33]", "result": -0.841}, {"measurement": "glycan array binding signal (z-score)", "setting": "[34]", "result": -0.274}, {"measurement": "glycan array binding signal (z-score)", "setting": "[35]", "result": -0.182}, {"measurement": "glycan array binding signal (z-score)", "setting": "[36]", "result": 0.182}, {"measurement": "glycan array binding signal (z-score)", "setting": "[37]", "result": -0.493}, {"measurement": "glycan array binding signal (z-score)", "setting": "[38]", "result": -0.833}]}]}
